Results deposited as PubChem BioAssay AID1159578 (Peter MacCallum Cancer Centre, 2015).
The deposit covers about 18,000 reagents; below is an unselected part. In the full data, about 1,030 (5.7%) got an active call. 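Inactive calls also include pools with fewer than 3300 nuclei, whose migration was not assessed.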 The raw values are shown without normalisation. Entries without a mark were called inactive.

Purpose: 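siRNA pools altering how lymphatic endothelial cells close a scratch wound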 (primary screen)
Cells: human lymphatic endothelial cells
Reagent: siRNA pool against human genes, 40 nM
Duration: 48 h after transfection
Read-out: 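Cells stained with dye and imaged after a scratch; covered wound area and nuclei counted, duplicates averaged, migration set against mock wells and turned into a robust z-score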
Reading the numbers: migration robust z-score: higher = faster migration into the scratch; migration relative to mock: higher = more scratch area covered than mock; nuclei per well: higher = more cells in the well
Call rule: 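Migration changed when robust z exceeds 2 or falls below -2 and mean nuclei number is at least 3300; otherwise not called changed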
Meaning of the calls: active = migration changed; inactive = no migration change, or too few cells

target gene	migration robust z-score	migration class with cell-count check	migration relative to mock	nuclei per well, duplicate mean
APTX (GeneID 54840)	0.94	migration z between -2 and 2; enough cells	0.98	5070
DEFB134 (GeneID 613211)	-0.39	migration z between -2 and 2; enough cells	0.78	5695
RABL2A (GeneID 11159)	-0.21	migration z between -2 and 2; enough cells	0.76	5482
CRY1 (GeneID 1407)	0.88	migration z between -2 and 2; enough cells	0.98	5616
MYRIP (GeneID 25924)	-1.05	migration z between -2 and 2; enough cells	0.62	3864
VCPIP1 (GeneID 80124)	-0.98	migration z between -2 and 2; enough cells	0.63	5558
TSEN15 (GeneID 116461)	0.04	migration z between -2 and 2; enough cells	0.9	6489
HSPA1A (GeneID 3303)	-0.31	migration z between -2 and 2; enough cells	0.75	4962
CSGALNACT2 (GeneID 55454)	-0.67	migration z between -2 and 2; enough cells	0.68	6038
NCF1 (GeneID 653361)	-0.59	migration z between -2 and 2; enough cells	0.73	7112
CASD1 (GeneID 64921)	-2.1 (active)	migration z below -2; enough cells	0.4	4981
GPR137 (GeneID 56834)	-0.1	migration z between -2 and 2; enough cells	0.86	6760
ZNF829 (GeneID 374899)	0.48	migration z between -2 and 2; enough cells	1	5516
DCAF13 (GeneID 25879)	-0.5	migration z between -2 and 2; enough cells	0.76	6472
SENP2 (GeneID 59343)	0.02	migration z between -2 and 2; enough cells	0.81	5443
ADSS2 (GeneID 159)	-1.06	migration z between -2 and 2; enough cells	0.6	4330
SDCCAG8 (GeneID 10806)	-3.11 (active)	migration z below -2; enough cells	0.08	5112
GTF2F1 (GeneID 2962)	1.19	migration z between -2 and 2; enough cells	1.19	5617
RFC4 (GeneID 5984)	-0.38	migration z between -2 and 2; enough cells	0.73	5318
BRCA2 (GeneID 675)	0.76	migration z between -2 and 2; enough cells	0.95	5784
PDHX (GeneID 8050)	-0.2	migration z between -2 and 2; enough cells	0.76	5614
OCA2 (GeneID 4948)	-0.11	migration z between -2 and 2; enough cells	0.78	5750
OBI1 (GeneID 79596)	0.36	migration z between -2 and 2; enough cells	0.88	5490
ZNF417 (GeneID 147687)	-1.88	migration z between -2 and 2; enough cells	0.4	6272
CYP3A7 (GeneID 1551)	-0.26	migration z between -2 and 2; enough cells	0.82	6434
IER3 (GeneID 8870)	0.15	migration z between -2 and 2; enough cells	0.92	5424
FTCD (GeneID 10841)	0.71	migration z between -2 and 2; enough cells	1.07	5393

Next part (8 carried over from the part before).
target gene	migration robust z-score	migration class with cell-count check	migration relative to mock	nuclei per well, duplicate mean
BRCA2 (GeneID 675)	0.76	migration z between -2 and 2; enough cells	0.95	5784
PDHX (GeneID 8050)	-0.2	migration z between -2 and 2; enough cells	0.76	5614
OCA2 (GeneID 4948)	-0.11	migration z between -2 and 2; enough cells	0.78	5750
OBI1 (GeneID 79596)	0.36	migration z between -2 and 2; enough cells	0.88	5490
ZNF417 (GeneID 147687)	-1.88	migration z between -2 and 2; enough cells	0.4	6272
CYP3A7 (GeneID 1551)	-0.26	migration z between -2 and 2; enough cells	0.82	6434
IER3 (GeneID 8870)	0.15	migration z between -2 and 2; enough cells	0.92	5424
FTCD (GeneID 10841)	0.71	migration z between -2 and 2; enough cells	1.07	5393
STARD5 (GeneID 80765)	0.99	migration z between -2 and 2; enough cells	1.15	5977
SMN2 (GeneID 6607)	-0.46	migration z between -2 and 2; enough cells	0.76	5849
RGS12 (GeneID 6002)	0.06	migration z between -2 and 2; enough cells	0.9	3992
RBM7 (GeneID 10179)	-0.93	migration z between -2 and 2; enough cells	0.64	3790
CCDC125 (GeneID 202243)	-1.19	migration z between -2 and 2; enough cells	0.57	5458
NAGPA (GeneID 51172)	-0.6	migration z between -2 and 2; enough cells	0.69	5638
SMC6 (GeneID 79677)	-0.06	migration z between -2 and 2; enough cells	0.87	6138
MKKS (GeneID 8195)	-1.69	migration z between -2 and 2; enough cells	0.44	5926
FGF7 (GeneID 2252)	-0.68	migration z between -2 and 2; enough cells	0.68	6060
CFH (GeneID 3075)	-0.54	migration z between -2 and 2; enough cells	0.74	6354
MINPP1 (GeneID 9562)	-0.94	migration z between -2 and 2; enough cells	0.62	5089
TCERG1L (GeneID 256536)	0.78	migration z between -2 and 2; enough cells	1.09	5720
NR2E3 (GeneID 10002)	-0.56	migration z between -2 and 2; enough cells	0.74	6846
PDPR (GeneID 55066)	-1.42	migration z between -2 and 2; enough cells	0.53	3465
SP110 (GeneID 3431)	-0.72	migration z between -2 and 2; enough cells	0.7	5398
CBLC (GeneID 23624)	-0.52	migration z between -2 and 2; enough cells	0.7	4765
CLGN (GeneID 1047)	-0.36	migration z between -2 and 2; enough cells	0.74	6137
EEF1D (GeneID 1936)	-0.24	migration z between -2 and 2; enough cells	0.76	6660
FAM124B (GeneID 79843)	-0.02	migration z between -2 and 2; enough cells	0.88	6268
ACY3 (GeneID 91703)	-1.1	migration z between -2 and 2; enough cells	0.6	7026
MRPS11 (GeneID 64963)	-0.78	migration z between -2 and 2; enough cells	0.69	3460
GIMAP6 (GeneID 474344)	0.54	migration z between -2 and 2; enough cells	1.02	6303
NETO2 (GeneID 81831)	0.4	migration z between -2 and 2; enough cells	0.99	6292
KIAA0753 (GeneID 9851)	0.22	migration z between -2 and 2; enough cells	0.94	5496
PCP4 (GeneID 5121)	-0.35	migration z between -2 and 2; enough cells	0.8	5413
CSTL1 (GeneID 128817)	1.52	migration z between -2 and 2; enough cells	1.28	5840
RPL26 (GeneID 6154)	-3.29	under 3300 nuclei; migration not judged	0.04	1831
ARMH4 (GeneID 145407)	-1.58	migration z between -2 and 2; enough cells	0.47	3539
FLVCR1 (GeneID 28982)	-0.31	migration z between -2 and 2; enough cells	0.74	6068
ZNF35 (GeneID 7584)	0.26	migration z between -2 and 2; enough cells	0.86	5844
